Results reported in patent US20260209319A1.
No constants are given. Whether binding was seen depends on the method and setting. Some binding calls cover weakened binding; strength is not graded here.

Chains of the proteins cited; added tags and fusions are not shown. Lines headed by an entry give the natural chain unless they say otherwise; changes in a name come on top. A line that says so, or that is headed by a name, gives the form on record, which may keep a tag or linker.
mesothelin (soluble, recombinant) (Q13421, form named): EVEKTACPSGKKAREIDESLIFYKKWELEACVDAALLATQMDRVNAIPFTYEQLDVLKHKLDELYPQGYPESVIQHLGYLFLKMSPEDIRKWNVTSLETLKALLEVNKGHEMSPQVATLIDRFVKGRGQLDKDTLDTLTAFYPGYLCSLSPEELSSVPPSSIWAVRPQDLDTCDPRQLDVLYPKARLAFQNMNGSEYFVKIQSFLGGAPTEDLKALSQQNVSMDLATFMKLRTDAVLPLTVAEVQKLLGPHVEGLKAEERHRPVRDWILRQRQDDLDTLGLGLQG

Assays:
[1] = molecular target: mesothelin (soluble, recombinant) (UniProt Q13421); experiment: Octet, IgG captured on anti-human Fc (AHC) biosensor, 125 nM mesothelin, 5 min association, 5 min dissociation [con't), panel MSLN-39]
[2] = molecular target: mesothelin (soluble, recombinant) (UniProt Q13421); experiment: Octet, IgG captured on anti-human Fc (AHC) biosensor, 125 nM mesothelin, 5 min association, 5 min dissociation [con't), panel MSLN-41]
[3] = molecular target: mesothelin (soluble, recombinant) (UniProt Q13421); experiment: Octet, IgG captured on anti-human Fc (AHC) biosensor, 125 nM mesothelin, 5 min association, 5 min dissociation [con't), panel MSLN-42]
[4] = molecular target: mesothelin (soluble, recombinant) (UniProt Q13421); experiment: Octet, IgG captured on anti-human Fc (AHC) biosensor, 125 nM mesothelin, 5 min association, 5 min dissociation [con't), panel MSLN-43]
[5] = molecular target: mesothelin (soluble, recombinant) (UniProt Q13421); experiment: Octet, IgG captured on anti-human Fc (AHC) biosensor, 125 nM mesothelin, 5 min association, 5 min dissociation [con't), panel MSLN-45]

B1: MSLN-39 IgG (antibody, V domains shown)
VH: QVQLQESGPGLVKPSETLSLTCTVSGGSVSSFTDTWSWIRQPPGKGLEWIGYIYYSGSTNYNPSLKSRVTISVDTSKNQFSLKLSSVTAADTAVYYCAREDALTGFDIWGQGTMVTVSS
VL: DIQMTQSPSSLSASVGDRVTITCRASQSSRYYVNWYQQKPGKAPKLLIYAASSLQSGVPSRFSGSGSGTDFTLTISSLQPEDFATYYCQQSYDASYTFGGGTKVEIK
Question: For B1, which binding [1] is on record?
Answer: binds

B2: MSLN-41 (antibody, V domains shown)
VH: QVQLQESGPGLVKPSETLSLTCTVSGGSVSSYHDLWSWIRQPPGKGLEWIGYIYYSGSTNYNPSLKSRVTISVDTSKNQFSLKLSSVTAADTAVYYCARDFVLSGFDIWGQGTMVTVSS
VL: DIQMTQSPSSLSASVGDRVTITCRASQSSRYYVNWYQQKPGKAPKLLIYAASSLQSGVPSRFSGSGSGTDFTLTISSLQPEDFATYYCQQSYDASYTFGGGTKVEIK
Question: B2 was tested. Which binding [2] did it give?
Answer: binds

B3: MSLN-42 (antibody, V domains shown)
VH: QVQLQESGPGLVKPSETLSLTCTVSGGSVSSRDDLWSWIRQPPGKGLEWIGYIYYSGSTNYNPSLKSRVTISVDTSKNQFSLKLSSVTAADTAVYYCARDFVLSGFDIWGQGTMVTVSS
VL: DIQMTQSPSSLSASVGDRVTITCRASQSSRYYVNWYQQKPGKAPKLLIYAASSLQSGVPSRFSGSGSGTDFTLTISSLQPEDFATYYCQQSYDASYTFGGGTKVEIK
Question: With B3 as the binder, how does the binding [3] read?
Answer: binds

B4: MSLN-43 (antibody, V domains shown)
VH: QVQLQESGPGLVKPSETLSLTCTVSGGSVSSFTDTWSWIRQPPGKGLEWIGYIYYSGSTNYNPSLKSRVTISVDTSKNQFSLKLSSVTAADTAVYYCARDFVLSGFDIWGQGTMVTVSS
VL: DIQMTQSPSSLSASVGDRVTITCRASQSSRYYVNWYQQKPGKAPKLLIYAASSLQSGVPSRFSGSGSGTDFTLTISSLQPEDFATYYCQQSYDASYTFGGGTKVEIK
Question: How did the binding [4] turn out when B4 was run?
Answer: binds

B5: MSLN-45 (antibody, V domains shown)
VH: QVQLQESGPGLVKPSETLSLTCTVSGGSVSSYHDLWSWIRQPPGKGLEWIGYIYYSGSTNYNPSLKSRVTISVDTSKNQFSLKLSSVTAADTAVYYCARDNVFTGFDIWGQGTMVTVSS
VL: DIQMTQSPSSLSASVGDRVTITCRASQSSRYYVNWYQQKPGKAPKLLIYAASSLQSGVPSRFSGSGSGTDFTLTISSLQPEDFATYYCQQSYDASYTFGGGTKVEIK
Question: Which binding [5] does the source give for B5 here?
Answer: binds
